Assay results published in publication PMC2909902.
No constants are given. Whether binding was seen depends on the method and setting. In cells and extracts the contact can be indirect. Some binding calls cover weakened binding; strength is not graded here.

Protein sequences, listed by entry. Tags and fused reporters are not part of them.
UniProt P19474: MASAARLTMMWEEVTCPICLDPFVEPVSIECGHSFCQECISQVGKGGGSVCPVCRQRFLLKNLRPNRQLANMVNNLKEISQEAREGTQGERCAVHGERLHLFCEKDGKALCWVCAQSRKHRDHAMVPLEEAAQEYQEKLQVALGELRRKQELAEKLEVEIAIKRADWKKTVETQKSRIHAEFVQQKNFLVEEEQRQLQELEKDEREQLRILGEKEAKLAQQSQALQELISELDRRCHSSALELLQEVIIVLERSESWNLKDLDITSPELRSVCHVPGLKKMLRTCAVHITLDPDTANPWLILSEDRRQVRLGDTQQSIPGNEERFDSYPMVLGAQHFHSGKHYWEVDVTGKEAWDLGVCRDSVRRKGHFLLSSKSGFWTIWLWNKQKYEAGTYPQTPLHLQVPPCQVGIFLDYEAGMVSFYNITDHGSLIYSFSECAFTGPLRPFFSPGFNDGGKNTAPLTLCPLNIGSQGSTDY

Molecular target: Ro52 (human (endogenous in HeLa)) (UniProt P19474)
Test: co-IP; HeLa cells, unstimulated or stimulated with polyI:C, LPS, imiquimod or CpG-B for 4 and 18 hrs; lysed in RIPA buffer; immunoprecipitated with anti-Ro52 bound to protein-G sepharose, immunoblotted with anti-IRF7

binding: binds
B1: IRF7 (protein, UniProt Q92985 1-503)
chain: MALAPERAAPRVLFGEWLLGEISSGCYEGLQWLDEARTCFRVPWKHFARKDLSEADARIFKAWAVARGRWPPSSRGGGPPPEAETAERAGWKTNFRCALRSTRRFVMLRDNSGDPADPHKVYALSRELCWREGPGTDQTEAEAPAAVPPPQGGPPGPFLAHTHAGLQAPGPLPAPAGDKGDLLLQAVQQSCLADHLLTASWGADPVPTKAPGEGQEGLPLTGACAGGPGLPAGELYGWAVETTPSPGPQPAALTTGEAAAPESPHQAEPYLSPSPSACTAVQEPSPGALDVTIMYKGRTVLQKVVGHPSCTFLYGPPDPAVRATDPQQVAFPSPAELPDQKQLRYTEELLRHVAPGLHLELRGPQLWARRMGKCKVYWEVGGPPGSASPSTPACLLPRNCDTPIFDFRVFFQELVEFRARQRRGSPRYTIYLGFGQDLSAGRPKEKSLVLVKLEPWLCRVHLEGTQREGVSSLDSSSLSLCLSSANSLYDDIECFLMELEQPA
